Data: paper PMC7102948
Numbering of substitutions follows the chain as printed. Construct, isoform or probe ends are uncertain for at least one entry. For some of these results: No signal at the amounts used counts as a negative. Protein sequences can lack the tags named with them. The comparison behind a weaker result is the experiment's own reference, which may not be listed here. At least one verdict rests on a figure or table, not on a statement of the authors.

Sequences of proteins named here, by UniProt entry; tags and fusion partners are left off. A change or cut given only in a name is not applied to a line headed by its entry.
UniProt O04492: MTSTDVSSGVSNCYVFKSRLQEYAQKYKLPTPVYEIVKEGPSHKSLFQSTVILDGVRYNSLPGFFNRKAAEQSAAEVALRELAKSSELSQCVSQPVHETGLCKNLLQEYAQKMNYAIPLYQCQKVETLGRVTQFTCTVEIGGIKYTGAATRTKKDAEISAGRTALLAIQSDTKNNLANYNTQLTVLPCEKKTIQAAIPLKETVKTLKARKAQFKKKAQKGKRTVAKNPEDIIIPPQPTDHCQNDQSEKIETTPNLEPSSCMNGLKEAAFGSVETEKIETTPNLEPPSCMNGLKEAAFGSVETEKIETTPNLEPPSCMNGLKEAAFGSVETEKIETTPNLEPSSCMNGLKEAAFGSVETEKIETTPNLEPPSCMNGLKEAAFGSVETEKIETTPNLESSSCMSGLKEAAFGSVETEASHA

Key:
[1] = target: T1, AtHYL1 dsRBD1 S18N/Y23L peptide (Arabidopsis thaliana) (UniProt O04492); assay: EMSA; details: 5 mM Mg2+, 83 mM Tris pH 8 (printed 'Tris pH 8, 83 mM'), 100 mM NaCl, 66 mM KCl, 5 mM MgCl2, 5 mM DTT, 25 C, 30 min, 4% TBE gel run cold, label: 32P 5'-end
T1 sequence: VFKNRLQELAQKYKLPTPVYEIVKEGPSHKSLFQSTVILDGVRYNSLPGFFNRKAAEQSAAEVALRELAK

[2] = target: T2, AtHYL1 dsRBD1 WT peptide (Arabidopsis thaliana) (UniProt O04492); assay: EMSA; details: 5 mM Mg2+, 83 mM Tris pH 8 (printed 'Tris pH 8, 83 mM'), 100 mM NaCl, 66 mM KCl, 5 mM MgCl2, 5 mM DTT, 25 C, 30 min, 4% TBE gel run cold, label: 32P 5'-end
T2 sequence: T1 sequence with N4S, L9Y

“AGUGGAAGAGGCAUGCAGAGGAGGAAACUCCUGUGCUUGCCUCUUCCAUU [miR528 stem-loop modified]”: no binding ([1]; binding abolished); binds ([2]; complex did not enter the gel).

“UCGAACAGGGCGCCAGUGCCC / GGGCACUGCCGCCCUGUUCGA [amiR72 duplex (71% GC)]”: binds more weakly ([1]; almost negligible); binds more weakly [2].

“UCGAACUAGGUCUCAGUGCUC / GAGCACUGUGACCUAGUUCGA [amiR52 duplex]”: binds more weakly ([1]; almost negligible); binds [2].

“UCGAAUAAGAUACUAUACGUU / AACGUAUACUAUCUUAUUCGA [amiR28 duplex]”: binds more weakly ([1]; almost negligible); binds more weakly [2].

“UUAUUAAUUUCGGCCCCGGCG / CGCCGGGCCCGAAAUUAAUAA [amiRscr52 duplex]”: binds more weakly ([1]; almost negligible); binds more weakly [2].
